PubChem BioAssay AID1508597 – Cure First, 2020
Shown is an unselected part of the about 2,100 reagents, under one of the conditions tested. 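Calls flag viability under 80% in either arm, not effects specific to rucaparib; the reference for percent is not stated.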 Not stated in the record: the 100% reference.

Assay: 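Genes whose silencing sensitises or protects ovarian cancer cells against rucaparib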 (primary screen)
Cell system: human ovarian carcinoma lines grown from tumours: OCI-P5x (papillary serous) and OCI-C5x (clear cell)
Reagents: siRNA pool against human genes, 1.25 pmol siRNA per well
Duration: 72 h or 96 h, depending on the cell culture
Conditions: rucaparib 20 µM (about IC30) or vehicle, present until read-out
Rucaparib or vehicle: Rucaparib
Cell line: OCI-C5x (clear cell)
Detection: 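ATP luminescence measured at 72 or 96 h according to the culture, then normalised and expressed as percent viability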
Scale: viability, normalised: higher = more viable cells remaining
Hit rule: 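a well counts as a hit if its normalised viability is under 80 percent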
Meaning of the calls: active = viability under 80%; inactive = viability 80% or more

JUNB, technical replicate 1: viability, normalised (%) = 41.4; Call = active
JUNB, technical replicate 2: viability, normalised (%) = 36; Call = active
JUNB, technical replicate 3: viability, normalised (%) = 55.3; Call = active
DDR2, technical replicate 1: viability, normalised (%) = 56.6; Call = active
DDR2, technical replicate 2: viability, normalised (%) = 69.6; Call = active
DDR2, technical replicate 3: viability, normalised (%) = 65.1; Call = active
ZDHHC1, technical replicate 1: viability, normalised (%) = 64.5; Call = active
ZDHHC1, technical replicate 2: viability, normalised (%) = 55.3; Call = active
ZDHHC1, technical replicate 3: viability, normalised (%) = 52.3; Call = active
EVI5L, technical replicate 1: viability, normalised (%) = 53.7; Call = active
EVI5L, technical replicate 2: viability, normalised (%) = 41.5; Call = active
EVI5L, technical replicate 3: viability, normalised (%) = 56.8; Call = active
JMJD4, technical replicate 1: viability, normalised (%) = 53.3; Call = active
JMJD4, technical replicate 2: viability, normalised (%) = 63.2; Call = active
JMJD4, technical replicate 3: viability, normalised (%) = 46.5; Call = active
EIF4A2, technical replicate 1: viability, normalised (%) = 31.9; Call = active
EIF4A2, technical replicate 2: viability, normalised (%) = 38.8; Call = active
EIF4A2, technical replicate 3: viability, normalised (%) = 29.5; Call = active
TDG, technical replicate 1: viability, normalised (%) = 57.9; Call = active
TDG, technical replicate 2: viability, normalised (%) = 46.8; Call = active
TDG, technical replicate 3: viability, normalised (%) = 69.5; Call = active

Not a retest: 3 of the entries above.
EIF4A2, technical replicate 2: viability, normalised (%) = 38.8; Call = active
EIF4A2, technical replicate 3: viability, normalised (%) = 29.5; Call = active
TDG, technical replicate 1: viability, normalised (%) = 57.9; Call = active
